These are yes or no findings as the source states them, for the method shown. Some entries that bind do so weakly or less than the wild type. For part of these data: Where a sequence is shown, tags or fusion partners need not be part of it.

The target in assay [1] is T1, Isoamylase2 (ISA2), Arabidopsis, endogenous (Arabidopsis thaliana (endogenous in leaves)) (UniProt Q8L735).
T1 sequence: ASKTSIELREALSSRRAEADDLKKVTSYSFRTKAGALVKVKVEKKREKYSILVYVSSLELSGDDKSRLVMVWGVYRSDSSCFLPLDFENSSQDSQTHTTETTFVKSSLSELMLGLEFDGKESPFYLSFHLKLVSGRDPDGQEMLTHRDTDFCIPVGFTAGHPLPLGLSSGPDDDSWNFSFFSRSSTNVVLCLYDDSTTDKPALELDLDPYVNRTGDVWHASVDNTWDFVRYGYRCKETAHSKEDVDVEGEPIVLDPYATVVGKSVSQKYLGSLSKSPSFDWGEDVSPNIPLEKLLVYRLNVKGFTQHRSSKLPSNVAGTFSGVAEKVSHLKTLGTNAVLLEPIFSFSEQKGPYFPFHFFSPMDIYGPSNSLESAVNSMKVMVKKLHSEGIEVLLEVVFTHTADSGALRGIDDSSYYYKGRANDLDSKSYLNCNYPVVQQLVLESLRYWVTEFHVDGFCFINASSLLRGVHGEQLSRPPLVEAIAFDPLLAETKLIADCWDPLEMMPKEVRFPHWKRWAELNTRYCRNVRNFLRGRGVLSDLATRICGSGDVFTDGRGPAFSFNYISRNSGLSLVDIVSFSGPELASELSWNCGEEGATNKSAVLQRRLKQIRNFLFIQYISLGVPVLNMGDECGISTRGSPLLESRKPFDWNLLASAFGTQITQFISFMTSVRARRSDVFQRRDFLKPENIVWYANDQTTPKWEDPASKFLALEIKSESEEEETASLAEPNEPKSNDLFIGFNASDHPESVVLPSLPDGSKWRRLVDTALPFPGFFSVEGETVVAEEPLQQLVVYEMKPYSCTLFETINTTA
Description: SEC; crude extract of wild-type Arabidopsis leaves on a calibrated Sephacryl HiLoad 200 prep grade column, 100 mM Tris-HCl pH 7.5, 300 mM KCl, 5 mM DTT, 4°C; fractions analysed by SDS-PAGE and immunoblot with ISA1- and ISA2-specific antibodies.

For assay [2], the target named is T2, ISA2-TAP (ISA2 with a C-terminal tandem affinity purification tag) (Arabidopsis) (UniProt Q8L735).
T2 sequence: T1 sequence
Description: SEC; extract of ISA2-TAP transformed plants, gel filtration followed by immunoblotting; data not shown. Background: In gel filtration, larger molecules generally elute earlier.

For assay [3], the target named is T3, Recombinant Arabidopsis ISA2 (without transit peptide) (Arabidopsis) (UniProt Q8L735).
T3 sequence: T1 sequence
As to the kind of experiment: SEC; extract of E. coli cells co-expressing ISA1 and ISA2 on a Sephacryl HiLoad 200 prep grade column, 100 mM Tris-HCl pH 7.5, 300 mM KCl, 5 mM DTT, 4°C; fractions analysed by SDS-PAGE and immunoblot.

B1: Isoamylase1 (ISA1), Arabidopsis, endogenous (enzyme, UniProt O04196 44-783, looked up)
chain: AKDRRSNEAENIAVVEKPLKSDRFFISDGLPSPFGPTVRDDGVNFSVYSTNSVSATICLISLSDLRQNKVTEEIQLDPSRNRTGHVWHVFLRGDFKDMLYGYRFDGKFSPEEGHYYDSSNILLDPYAKAIISRDEFGVLGPDDNCWPQMACMVPTREEEFDWEGDMHLKLPQKDLVIYEMHVRGFTRHESSKIEFPGTYQGVAEKLDHLKELGINCIELMPCHEFNELEYYSYNTILGDHRVNFWGYSTIGFFSPMIRYASASSNNFAGRAINEFKILVKEAHKRGIEVIMDVVLNHTAEGNEKGPIFSFRGVDNSVYYMLAPKGEFYNYSGCGNTFNCNHPVVRQFILDCLRYWVTEMHVDGFRFDLGSIMSRSSSLWDAANVYGADVEGDLLTTGTPISCPPVIDMISNDPILRGVKLIAEAWDAGGLYQVGMFPHWGIWSEWNGKFRDVVRQFIKGTDGFSGAFAECLCGSPNLYQGGRKPWHSINFICAHDGFTLADLVTYNNKNNLANGEENNDGENHNYSWNCGEEGDFASISVKRLRKRQMRNFFVSLMVSQGVPMIYMGDEYGHTKGGNNNTYCHDNYMNYFRWDKKEEAHSDFFRFCRILIKFRDECESLGLNDFPTAKRLQWHGLAPEIPNWSETSRFVAFSLVDSVKKEIYVAFNTSHLATLVSLPNRPGYRWEPFVDTSKPSPYDCITPDLPERETAMKQYRHFLDANVYPMLSYSSIILLLSPIKDP
notes: Isoamylase 1 (ISA1) of Arabidopsis thaliana, endogenous protein in soluble leaf extracts; Chloroplast protein; also called AtISA1; source: endogenous, Arabidopsis leaf extracts (wild type and ISA2-TAP plants)
As to B1, the binding entry in assay [1] and in assay [2] was “binds” throughout.

B2: Recombinant Arabidopsis ISA1 (without transit peptide) (enzyme, UniProt O04196 44-783)
chain: B1 chain
In the case of B2, the binding entry in assay [3] was “binds”.

(Values after paper PMC3787081, “The Heteromultimeric Debranching Enzyme Involved in Starch Synthesis in Arabidopsis Requires Both Isoamylase1 and Isoamylase2 Subunits for Complex Stability and Activity” (PLoS ONE, 2013).)
